These are literature values, as cited in US8741957B2, “Alpha-aminoamide derivatives useful in the treatment of cognitive disorders” (priority 2006, dated 2014).

The series concerns experimental brain injury in the rat. The following applies: preclinical testing; cited from earlier work.

Molecules are shown by their SMILES.

As for `Nc1nc2ccc(OC(F)(F)F)cc2s1` [riluzole], the “cognition following experimental brain injury” value is “improve cognition”.
